# Test results published in paper PMC3219729.
# No constants are given. Whether binding was seen depends on the method and setting. In cells and extracts the contact can be indirect. Binding calls can cover weak binding; strength is not graded here.
# Molecular target: T1, splicing factor proline-glutamine rich (SFPQ/PSF) (human (endogenous in A549)) (UniProt P23246)
# T1 sequence: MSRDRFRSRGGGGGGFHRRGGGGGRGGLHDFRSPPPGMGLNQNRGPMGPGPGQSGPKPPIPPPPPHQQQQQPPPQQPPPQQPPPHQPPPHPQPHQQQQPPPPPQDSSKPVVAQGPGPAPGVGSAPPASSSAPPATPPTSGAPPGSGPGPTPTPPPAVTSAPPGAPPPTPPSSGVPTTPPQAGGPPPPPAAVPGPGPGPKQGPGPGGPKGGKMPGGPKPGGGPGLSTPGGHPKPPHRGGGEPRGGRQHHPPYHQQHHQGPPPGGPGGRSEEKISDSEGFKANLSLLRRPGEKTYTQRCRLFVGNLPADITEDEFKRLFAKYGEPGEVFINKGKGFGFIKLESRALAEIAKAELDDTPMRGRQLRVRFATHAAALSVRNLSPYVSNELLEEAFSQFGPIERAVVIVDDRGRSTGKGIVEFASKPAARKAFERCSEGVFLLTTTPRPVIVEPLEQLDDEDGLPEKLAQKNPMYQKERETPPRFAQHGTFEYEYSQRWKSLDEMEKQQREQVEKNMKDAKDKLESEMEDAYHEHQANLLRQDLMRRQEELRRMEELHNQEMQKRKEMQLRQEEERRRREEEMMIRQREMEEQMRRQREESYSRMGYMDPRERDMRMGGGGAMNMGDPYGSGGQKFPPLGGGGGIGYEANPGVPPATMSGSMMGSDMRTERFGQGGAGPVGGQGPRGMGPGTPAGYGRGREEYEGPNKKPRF
# Assay: co-IP
substance,measurement,value
nucleoprotein (NP) of influenza virus A/Victoria/3/75 (H3N2),binding,binds
